{"source": "PubChem BioAssay AID686943 – Drosophila RNAi Screening Center – 2013", "purpose": "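Knockdowns that increase or decrease active ERK after insulin receptor stimulation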 (primary screen)", "cell system": "Drosophila S2R+ haemocyte-like cells expressing YFP-tagged ERK (Rolled)", "reagent": "long dsRNA against Drosophila genes", "treatment": "insulin stimulation versus unstimulated cells; dose and duration not given", "measurement": "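Per-plate z-scores of phospho-ERK immunostaining normalised to YFP-tagged ERK, measured with and without insulin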", "scale": "replicate 1, z-score of dpERK with insulin: higher = more active ERK per ERK-YFP after insulin", "note": "The deposit covers about 23,000 reagents; this is an unselected part of those with a known target gene and a result. 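Extra replicates exist only for a retested subset of genes; insulin dose and duration not given; both raised and lowered dpERK matter.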 Further read-outs or replicates are left out here. Not given: the amount of reagent, the time to read-out."}
{"target": "CG31717", "amplicon": "DRSC01121", "replicate 1, z-score of dpERK with insulin": 0.26}
{"target": "spir", "amplicon": "DRSC03619", "replicate 1, z-score of dpERK with insulin": 0.49}
{"target": "Adk2", "amplicon": "DRSC09827", "replicate 1, z-score of dpERK with insulin": -0.3}
{"target": "cbt", "amplicon": "DRSC00655", "replicate 1, z-score of dpERK with insulin": 0.34}
{"target": "p47", "amplicon": "DRSC06046", "replicate 1, z-score of dpERK with insulin": -0.66}
{"target": "Or10a", "amplicon": "DRSC20264", "replicate 1, z-score of dpERK with insulin": -0.03}
{"target": "Vps2", "amplicon": "DRSC14886", "replicate 1, z-score of dpERK with insulin": -1.48}
{"target": "Mlf", "amplicon": "DRSC07472", "replicate 1, z-score of dpERK with insulin": 4.25}
{"target": "CG9570", "amplicon": "DRSC20687", "replicate 1, z-score of dpERK with insulin": 0.99}
{"target": "Gale", "amplicon": "DRSC08234", "replicate 1, z-score of dpERK with insulin": -0.07}
{"target": "CG7650", "amplicon": "DRSC10898", "replicate 1, z-score of dpERK with insulin": -0.21}
{"target": "MESR3", "amplicon": "DRSC02463", "replicate 1, z-score of dpERK with insulin": -0.12}
{"target": "Nup93-1", "amplicon": "DRSC19344", "replicate 1, z-score of dpERK with insulin": 0.32}
{"target": "CG13658", "amplicon": "DRSC14659", "replicate 1, z-score of dpERK with insulin": 0.38}
{"target": "laf", "amplicon": "DRSC12246", "replicate 1, z-score of dpERK with insulin": -0.52}
{"target": "Sras", "amplicon": "DRSC11287", "replicate 1, z-score of dpERK with insulin": 0.84}
{"target": "CG7509", "amplicon": "DRSC08596", "replicate 1, z-score of dpERK with insulin": 0.71}
{"target": "CG2070", "amplicon": "DRSC06814", "replicate 1, z-score of dpERK with insulin": -0.77}
{"target": "CG11601", "amplicon": "DRSC00318", "replicate 1, z-score of dpERK with insulin": 0.04}
{"target": "Alms1a", "amplicon": "DRSC18558", "replicate 1, z-score of dpERK with insulin": -0.52}
{"target": "CR43361", "amplicon": "DRSC17206", "replicate 1, z-score of dpERK with insulin": -0.3}
{"target": "CG13837", "amplicon": "DRSC14687", "replicate 1, z-score of dpERK with insulin": 0.46}
{"target": "Aldh", "amplicon": "DRSC02717", "replicate 1, z-score of dpERK with insulin": -0.42}
{"target": "robl37BC", "amplicon": "DRSC02472", "replicate 1, z-score of dpERK with insulin": 0.37}

5 entries from above, set out differently:
CG2070 [DRSC06814] | replicate 1, z-score of dpERK with insulin: -0.77
CG11601 [DRSC00318] | replicate 1, z-score of dpERK with insulin: 0.04
Alms1a [DRSC18558] | replicate 1, z-score of dpERK with insulin: -0.52
CR43361 [DRSC17206] | replicate 1, z-score of dpERK with insulin: -0.3
CG13837 [DRSC14687] | replicate 1, z-score of dpERK with insulin: 0.46

The list goes on.
{"target": "plx", "amplicon": "DRSC12260", "replicate 1, z-score of dpERK with insulin": 0.57}
{"target": "plx", "amplicon": "DRSC12385", "replicate 1, z-score of dpERK with insulin": -0.1}
{"target": "plx", "amplicon": "DRSC22683", "replicate 1, z-score of dpERK with insulin": -2.85}
{"target": "mthl2", "amplicon": "DRSC10287", "replicate 1, z-score of dpERK with insulin": 0.35}
{"target": "prom", "amplicon": "DRSC04684", "replicate 1, z-score of dpERK with insulin": 0.02}
{"target": "prom", "amplicon": "DRSC21463", "replicate 1, z-score of dpERK with insulin": 0.94}
{"target": "prom", "amplicon": "DRSC22088", "replicate 1, z-score of dpERK with insulin": 2.65}
{"target": "RpS9", "amplicon": "DRSC11273", "replicate 1, z-score of dpERK with insulin": 1.87}
{"target": "CG17292", "amplicon": "DRSC02594", "replicate 1, z-score of dpERK with insulin": 0.09}
{"target": "Tsp42Eo", "amplicon": "DRSC06184", "replicate 1, z-score of dpERK with insulin": -1.55}
{"target": "CG13239", "amplicon": "DRSC11694", "replicate 1, z-score of dpERK with insulin": 0.34}
{"target": "obst-I", "amplicon": "DRSC08339", "replicate 1, z-score of dpERK with insulin": -0.08}
{"target": "CG42715 (retired record)", "amplicon": "DRSC05499", "replicate 1, z-score of dpERK with insulin": 0.44}
{"target": "CG13609", "amplicon": "DRSC14612", "replicate 1, z-score of dpERK with insulin": 1.54}
{"target": "CG13609", "amplicon": "DRSC22843", "replicate 1, z-score of dpERK with insulin": 1.03}
{"target": "PEK", "amplicon": "DRSC12361", "replicate 1, z-score of dpERK with insulin": 0.31}
